The record followed here is publication doi:10.1101/2024.06.07.597857.

By UniProt entry, the sequences of proteins in these tests, tags left out.
UniProt P35222: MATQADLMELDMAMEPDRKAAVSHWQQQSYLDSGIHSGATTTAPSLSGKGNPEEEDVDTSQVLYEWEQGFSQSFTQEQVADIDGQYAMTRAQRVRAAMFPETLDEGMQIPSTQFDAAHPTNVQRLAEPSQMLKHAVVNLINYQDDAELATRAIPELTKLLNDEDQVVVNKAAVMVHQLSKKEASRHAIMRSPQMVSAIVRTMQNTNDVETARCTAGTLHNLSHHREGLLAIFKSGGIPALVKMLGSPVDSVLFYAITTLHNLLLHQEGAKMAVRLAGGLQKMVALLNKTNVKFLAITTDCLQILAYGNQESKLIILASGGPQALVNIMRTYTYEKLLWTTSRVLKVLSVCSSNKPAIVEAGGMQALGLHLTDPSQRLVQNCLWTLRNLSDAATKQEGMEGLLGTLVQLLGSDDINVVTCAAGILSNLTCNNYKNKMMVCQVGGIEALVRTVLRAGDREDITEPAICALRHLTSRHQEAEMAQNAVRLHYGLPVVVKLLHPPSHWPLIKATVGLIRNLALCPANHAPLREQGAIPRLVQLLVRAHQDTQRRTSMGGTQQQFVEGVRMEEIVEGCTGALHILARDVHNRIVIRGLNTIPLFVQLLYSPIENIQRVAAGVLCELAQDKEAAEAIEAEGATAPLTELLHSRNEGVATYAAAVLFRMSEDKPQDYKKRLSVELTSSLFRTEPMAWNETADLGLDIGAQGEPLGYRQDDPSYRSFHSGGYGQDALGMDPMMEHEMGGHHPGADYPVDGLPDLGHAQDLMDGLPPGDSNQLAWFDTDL
UniProt Q7Z4V5: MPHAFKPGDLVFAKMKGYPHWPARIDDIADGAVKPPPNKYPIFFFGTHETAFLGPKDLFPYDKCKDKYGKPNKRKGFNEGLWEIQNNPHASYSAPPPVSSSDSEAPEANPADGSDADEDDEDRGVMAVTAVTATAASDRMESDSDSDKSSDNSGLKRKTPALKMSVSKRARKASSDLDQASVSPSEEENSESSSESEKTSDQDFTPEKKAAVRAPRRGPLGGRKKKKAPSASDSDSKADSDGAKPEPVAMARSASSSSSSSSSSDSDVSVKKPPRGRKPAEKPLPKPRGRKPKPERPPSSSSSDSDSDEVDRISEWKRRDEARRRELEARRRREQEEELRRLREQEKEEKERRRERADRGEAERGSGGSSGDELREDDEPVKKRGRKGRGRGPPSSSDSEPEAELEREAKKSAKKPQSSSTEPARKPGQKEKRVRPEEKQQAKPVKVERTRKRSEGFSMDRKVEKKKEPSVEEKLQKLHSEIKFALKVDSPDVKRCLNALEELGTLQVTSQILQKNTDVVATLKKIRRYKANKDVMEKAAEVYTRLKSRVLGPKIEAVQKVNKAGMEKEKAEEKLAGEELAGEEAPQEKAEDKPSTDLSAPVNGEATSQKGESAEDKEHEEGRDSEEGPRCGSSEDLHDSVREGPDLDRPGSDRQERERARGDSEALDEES

The test deals with β-catenin (human (endogenous in ovarian carcinoma cells)) (UniProt P35222). The test can be described thus: affinity purification with mass spectrometry.

These are yes or no findings as the source states them, for the method shown. In cells and extracts the contact can be indirect. Here binding means that the protein was enriched with, or labelled near, the bait; the list need not be complete.

Consider “hepatoma-derived growth factor related protein 2 (HRP2) (from UniProt Q7Z4V5 1-671)”, for which the binding entry is given as “binds”.
